Measured values reported in patent US20150197546A1.
No constants are given. Whether binding was seen depends on the method and setting.

Target: trypsin (Pierce Biotechnology Inc.)
Test: ELISA, trypsin coated on plate, purified peptide detected with anti-S-tag HRP

binding | Binder
no binding | α-chymotrypsin-binding peptide No. 2 (designed binder, not shown: large carriers) DPQFGLFSKYRTPNCMRHRRHFCTMVYKPVCGSDMSTYANECTLCMKIREGGHNIKIIRNGPC
no binding | α-chymotrypsin-binding peptide No. 6 (designed binder, not shown: large carriers) DPQFGLFSKYRTPNCRRWLLPWCTYKYKPVCGSDMSTYANECTLCMKIREGGHNIKIIRNGPC
